Reference: US20200407435A1
Results are given in words; binding and its absence hold for the method and conditions named. Some binding calls cover weakened binding; strength is not graded here.

The chains behind the UniProt entries cited, without tags or fusion partners. Where a name states a change or a piece, a line headed by the entry shows the natural chain unless it says otherwise. Residues count along the entry.
UniProt O15123: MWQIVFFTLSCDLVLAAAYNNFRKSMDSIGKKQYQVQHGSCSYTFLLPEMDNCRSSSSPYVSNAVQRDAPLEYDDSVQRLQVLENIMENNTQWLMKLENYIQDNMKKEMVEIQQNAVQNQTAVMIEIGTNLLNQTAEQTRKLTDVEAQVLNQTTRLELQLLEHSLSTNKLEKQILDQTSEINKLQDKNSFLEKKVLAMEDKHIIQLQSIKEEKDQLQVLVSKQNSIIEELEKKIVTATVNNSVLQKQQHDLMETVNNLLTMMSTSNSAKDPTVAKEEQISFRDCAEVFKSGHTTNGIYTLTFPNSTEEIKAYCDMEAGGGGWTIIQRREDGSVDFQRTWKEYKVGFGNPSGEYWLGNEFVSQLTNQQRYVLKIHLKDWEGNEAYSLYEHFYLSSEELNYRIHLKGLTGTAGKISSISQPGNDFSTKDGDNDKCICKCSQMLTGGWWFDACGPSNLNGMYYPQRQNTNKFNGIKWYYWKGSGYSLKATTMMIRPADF
Human ANGPT2 Dimer (CC-FLD): residues 74-496 of O15123
human ANGPT2 (SPR analyte): residues 275-496 of O15123

Columns and labels:
[1] = target: cynomolgus (cyno) ANGPT2 (cynomolgus); assay: affinity binding data (SPR)
[2] = target: human ANGPT2 (SPR analyte) (human) (UniProt O15123); assay: affinity binding data (SPR)
[3] = target: T1, rabbit ANGPT2 (rabbit) (UniProt G1T9B3); assay: affinity binding data (SPR)
T1 sequence: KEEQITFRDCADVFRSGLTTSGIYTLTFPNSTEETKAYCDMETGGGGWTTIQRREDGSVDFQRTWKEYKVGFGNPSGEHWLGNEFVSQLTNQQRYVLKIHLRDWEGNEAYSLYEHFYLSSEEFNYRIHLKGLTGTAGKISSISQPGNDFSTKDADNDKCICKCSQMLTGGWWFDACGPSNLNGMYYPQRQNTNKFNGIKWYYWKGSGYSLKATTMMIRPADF

[4] = target: human ANGPT2 (SPR analyte) (human) (UniProt O15123); assay: SPR (ProteOn XPR36)
[5] = target: Human ANGPT2 Dimer (CC-FLD) (human) (UniProt O15123); assay: flow cytometry blocking assay: human ANGPT2 dimer (CC-FLD) pre-incubated with antibody, then added to HEK293 human Tie2 cells at 4 C; bound ANGPT2 detected with anti-His-AF647; blocked partner: human Tie2

Measured: binding

B1: ANGPT2-opt-1 (humanized) (antibody, human IgG1, kappa, V domains shown)
VH: QVQLVQSGAEVKKPGSSVKVSCKASGYIFIDYFINWVRQAPGQGLEWMGKIGPGSGSSSSNEKFKGRVTITADKSTSTAYMELSSLRSEDTAVYYCAREAFDYEGDYYGMAYWGQGTLVTVSS
VL: EIVMTQSPATLSVSPGERATLSCKSSQSLLASGNQKNFLAWYQQKPGQAPRLLIYGASTRESGIPARFSGSGSGTEFTLTISSLQSEDFAVYYCQNDHSYPITFGQGTKLEIKR
binds: [1] | [2] | [3] | [4]

B2: ANGPT2-opt-13 (humanized) (antibody, human IgG1, kappa, V domains shown)
VH: QVQLVQSGAEVKKPGSSVKVSCKASGYIFIDYFINWVRQAPGQGLEWMGKIGPGSGSSSSNEKFKGRVTITADKSTSTAYMELSSLRSEDTAVYYCAREAFDYDGDYYGMAYWGQGTLVTVSS
VL: EIVMTQSPATLSVSPGERATLSCKSSQSLLSSGNQKSFLAWYQQKPGQAPRLLIYGASTRETGIPARFSGSGSGTEFTLTISSLQSEDFAVYYCQNDHSYPITFGQGTKLEIKR
binds: [1] | [2] | [3] | [4]

B3: ANGPT2-opt-19 (humanized) (antibody, human IgG1, kappa, V domains shown)
VH: QVQLVQSGAEVKKPGSSVKVSCKASGYIFIDYFINWVRQAPGQGLEWMGKIGPGSGSSSSNEKFKGRVTITADKSTSTAYMELSSLRSEDTAVYYCAREAFDYDGDYYGMAYWGQGTLVTVSS
VL: EIVMTQSPATLSVSPGERATLSCRASQSVLSSGNQKSFLAWYQQKPGQAPRLLIYGASTRETGIPARFSGSGSGTEFTLTISSLQSEDFAVYYCQQDHSYPITFGQGTKLEIKR
binds: [1] | [2] | [3] | [4]

B4: ANGPT2-opt-31 (humanized) (antibody, human IgG1, kappa, V domains shown)
VH: QVQLVQSGAEVKKPGSSVKVSCKASGYIFIDYFINWVRQAPGQGLEWMGKIGPGSGSSSSNEKFKGRVTITADKSTSTAYMELSSLRSEDTAVYYCAREAFDYDGDYYGMAYWGQGTLVTVSS
VL: EIVMTQSPATLSVSPGERATLSCKSSQSLLSSGNQKSFLAWYQQKPGQAPRLLIYGASTRESGIPARFSGSGSGTEFTLTISSLQSEDFAVYYCQNDHSYPITFGQGTKLEIKR
binds: [1] | [2] | [3] | [4]

B5: ANGPT2-opt-2 (humanized) (antibody, human IgG1, kappa, V domains shown)
VH: QVQLVQSGAEVKKPGSSVKVSCKASGYIFIEYFINWVRQAPGQGLEWMGKIGPGSGSSSSNEKFKGRVTITADKSTSTAYMELSSLRSEDTAVYYCAREAFDYEGDYYGMAYWGQGTLVTVSS
VL: EIVMTQSPATLSVSPGERATLSCKSSQSLLASGNQKNFLAWYQQKPGQAPRLLIYGASTRESGIPARFSGSGSGTEFTLTISSLQSEDFAVYYCQNDHSYPITFGQGTKLEIKR
binds: [1] | [2] | [3] | [4]

B6: chimeric lead CL-209881 (antibody, V domains shown)
VH: QVQLKQSGAELVKPGSSVKISCRASGYIFIDYFINWVKQRPGQGLEWIGKIGPGSGSSSSNEKFKGKATLTADKSSSTAYMQLSSLTSEDSAVYFCAREAFDYDGDYYGMAYWGQGTSVTVSS
VL: DIVMTQSPSSLSVSAGEKVTMSCKSSQSLLNSGNQKNFLAWYQQKPGQPPKLLIYGASTRESGVPDRFTGSGSGTDFTLTITSVQAEDLAVYYCQNDHSYPITFGSGTKLEIK
binds: [5]
